Test results reported in patent publication US20120121610A1, “THERAPEUTIC AGENT AND ASSAY” (priority 2009, published 2012).
No constants are given. Whether binding was seen depends on the method and setting. Binding seen in cells or lysates may run through a third protein. Some results given as binding are weak or reduced against the parent protein; the word gives no strength.

Protein sequences, listed by entry. Tags and fused reporters are not part of them.
UniProt Q9HAW4: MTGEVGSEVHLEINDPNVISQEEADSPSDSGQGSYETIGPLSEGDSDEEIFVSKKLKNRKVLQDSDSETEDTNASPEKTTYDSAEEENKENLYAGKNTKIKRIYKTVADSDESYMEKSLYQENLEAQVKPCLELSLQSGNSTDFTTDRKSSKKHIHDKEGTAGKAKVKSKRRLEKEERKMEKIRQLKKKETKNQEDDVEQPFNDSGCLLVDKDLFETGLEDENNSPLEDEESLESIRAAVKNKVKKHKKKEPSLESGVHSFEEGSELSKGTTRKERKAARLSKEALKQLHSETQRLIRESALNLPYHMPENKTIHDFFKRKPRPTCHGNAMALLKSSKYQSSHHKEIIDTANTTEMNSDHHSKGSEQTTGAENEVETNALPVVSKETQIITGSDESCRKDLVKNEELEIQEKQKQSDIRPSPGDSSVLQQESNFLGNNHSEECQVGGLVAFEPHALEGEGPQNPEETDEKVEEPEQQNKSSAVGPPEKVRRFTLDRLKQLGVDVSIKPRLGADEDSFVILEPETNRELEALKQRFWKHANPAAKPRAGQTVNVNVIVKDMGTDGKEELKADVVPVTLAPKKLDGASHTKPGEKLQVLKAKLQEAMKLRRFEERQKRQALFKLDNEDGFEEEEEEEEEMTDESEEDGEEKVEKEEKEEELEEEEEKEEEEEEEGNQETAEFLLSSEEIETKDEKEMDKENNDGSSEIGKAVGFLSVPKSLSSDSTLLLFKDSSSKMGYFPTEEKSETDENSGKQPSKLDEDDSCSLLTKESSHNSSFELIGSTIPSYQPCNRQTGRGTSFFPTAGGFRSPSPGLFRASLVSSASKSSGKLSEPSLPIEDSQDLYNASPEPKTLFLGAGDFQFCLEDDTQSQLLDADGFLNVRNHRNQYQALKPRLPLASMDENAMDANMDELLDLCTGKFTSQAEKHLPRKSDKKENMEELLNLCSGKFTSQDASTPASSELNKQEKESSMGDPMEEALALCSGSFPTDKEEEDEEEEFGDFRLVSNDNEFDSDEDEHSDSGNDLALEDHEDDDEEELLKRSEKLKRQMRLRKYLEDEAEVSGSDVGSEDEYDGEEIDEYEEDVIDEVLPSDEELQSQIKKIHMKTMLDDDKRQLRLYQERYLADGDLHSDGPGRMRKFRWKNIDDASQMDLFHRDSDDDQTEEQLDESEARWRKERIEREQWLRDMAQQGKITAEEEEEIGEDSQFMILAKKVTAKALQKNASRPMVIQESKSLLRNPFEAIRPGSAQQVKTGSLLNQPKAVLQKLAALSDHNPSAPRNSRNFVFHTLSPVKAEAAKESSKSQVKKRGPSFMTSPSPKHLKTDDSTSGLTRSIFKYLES

What was measured:
[1] = molecular target: T1, Chk1 (serine/threonine protein kinase Chk1) (UniProt O14757); experiment: summary of the co-immunoprecipitation data (together with previously published work)
T1 sequence (looked up): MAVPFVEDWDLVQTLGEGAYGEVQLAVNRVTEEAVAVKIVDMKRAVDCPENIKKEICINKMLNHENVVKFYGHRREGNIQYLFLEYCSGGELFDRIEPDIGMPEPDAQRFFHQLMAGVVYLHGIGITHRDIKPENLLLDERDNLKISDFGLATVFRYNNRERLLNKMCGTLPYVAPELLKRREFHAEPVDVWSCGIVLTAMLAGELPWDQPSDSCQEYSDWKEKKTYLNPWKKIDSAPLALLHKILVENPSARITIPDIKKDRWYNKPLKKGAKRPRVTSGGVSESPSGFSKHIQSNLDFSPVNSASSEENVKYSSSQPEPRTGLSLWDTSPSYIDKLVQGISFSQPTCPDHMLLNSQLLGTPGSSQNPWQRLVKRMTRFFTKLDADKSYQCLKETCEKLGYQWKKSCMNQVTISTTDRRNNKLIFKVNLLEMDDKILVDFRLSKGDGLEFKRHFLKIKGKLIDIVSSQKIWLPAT

[2] = molecular target: T1, Chk1 (serine/threonine protein kinase Chk1); experiment: co-immunoprecipitation with anti-Chk1 antibodies from HeLa cells treated with 2 mM HU for 24 h, immunoblot (FIG. 2 legend)
[3] = molecular target: T1, Chk1 (serine/threonine protein kinase Chk1); experiment: co-immunoprecipitation of endogenous proteins with anti-Chk1 antibody from asynchronous or HU-treated HeLa cells, immunoblot

Measured: binding

Claspin (from UniProt Q9HAW4 1-1339)
binds: [1] | [2] | [3]
